In patent US11701363B2, “Methods for treating viral disorders” (TRUSTEES OF BOSTON UNIVERSITY, priority 2009, dated 2023):
At least one structure is not confirmed: it was looked up by name or label, or the drawing left a doubt.

Tested on: P3HR1 cells
Assay: Viable cell counts of P3HR1 cells (toxicity assays and combination treatment with GCV)
Conditions: 50 nM
Experimental: The EBV-positive B lymphoma cell line P3HR1 was used throughout these assays. The P3HR1 cell line was originally derived from Burkitt's lymphoma patient. EBV maintains a latent state of replication in this cell line. Cells were maintained in RPMI 1640 with 10% fetal bovine serum containing 100 U penicillin per ml and 100 μg streptomycin per ml. The HDAC inhibitors used were from five different classes: a) short chain fatty acids, b) hydroxamic acids, c) benzamides, d) cyclic tetrapeptides, and e) largazoles.
Toxicity assays with two anti-herpesvirus drugs, Gancicovir (GCV) and Penciclovir (PCV), treated to P3HR1 cells alone was conducted as a control. A total of 3×10^5 P3HR1 cells were incubated with various concentrations of GCV or PCV and incubated for 6 days. Viable cell counts were measured and toxicity was expressed as percentage of cell growth compared to untreated cells.

Cc1[nH]c2ccccc2c1CCNCc1ccc(/C=C/C(=O)NO)cc1 [LHB589, panobinostat] was tested, and the “growth inhibitory activity in combination treatment” value was “comparable to that of NaB at 1.0 mM”.
